Experimental data taken from patent US20050202535A1.
No constants are given. Whether binding was seen depends on the method and setting. Some entries that bind do so weakly or less than the wild type.

By UniProt entry, the sequences of proteins in these tests, tags left out. Where a name states a change or a piece, a line headed by the entry shows the natural chain unless it says otherwise. Chains listed by the source or under a name are the forms on record and can include a tag or linker.
VegF (vascular endothelial growth factor; PeproTech), biotinylated (P15692, form named): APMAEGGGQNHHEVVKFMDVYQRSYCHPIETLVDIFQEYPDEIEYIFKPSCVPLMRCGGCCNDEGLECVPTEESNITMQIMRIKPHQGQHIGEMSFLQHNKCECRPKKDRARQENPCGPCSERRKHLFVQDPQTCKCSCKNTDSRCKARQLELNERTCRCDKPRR

B1: 2BBIck81 (Bowman-Birk inhibitor with the VegF binding peptide CK37281 in the chymotrypsin inhibitory loop), free form released from the BCE103-lnk2-2BBIck81 … (designed binder)
chain: DDESSKPCCDQCACTKSNPPQCRCSDMRLNSCHSACKSCACYNLYGWTCFCVDITDFCYEPCKPSEDDKEN
B2: 1BBIck81 (Bowman-Birk inhibitor with the VegF binding peptide CK37281 in the trypsin inhibitory loop) (designed binder)
chain: DDESSKPCCDQCACYNLYGWTCRCSDMRLNSCHSACKSCICALSYPAQCFCVDITDFCYEPCKPSEDDKEN

What follows are binders tested against VegF (vascular endothelial growth factor; PeproTech), biotinylated (UniProt P15692) (assay: ECL competition assay (BioVeris), competitor Anti-VegF antibody).

binding, binds:
ACYNLYGWTC [synthesized CK37281 peptide (VegF binding peptide CK37281)], B1, B2
